Experimental data published in the supplement of paper PMC12823440, “Inhibitors supercharge kinase turnover through native proteolytic circuits” (Nature, 2025).
Structures can show the parent of a compound that is named as a salt. This is one part of the list. The calls rarely recur for the same compound in another form.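 In K562 cells expressing nanoluciferase-fused kinases, luminescence was recorded at 4 h intervals between 2 and 18 h, normalized as percent of control with DMSO at 100% and a positive control at 0%. A significant (2 sigma) signal drop marks a time point as decreased. The authors' rule for a hit is not shown and takes in more than the number of time points.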

Protein sequences, listed by entry. Tags and fused reporters are not part of them. Lines headed by an entry give the natural chain unless they say otherwise; changes in a name come on top.
UniProt P29317, whole entry: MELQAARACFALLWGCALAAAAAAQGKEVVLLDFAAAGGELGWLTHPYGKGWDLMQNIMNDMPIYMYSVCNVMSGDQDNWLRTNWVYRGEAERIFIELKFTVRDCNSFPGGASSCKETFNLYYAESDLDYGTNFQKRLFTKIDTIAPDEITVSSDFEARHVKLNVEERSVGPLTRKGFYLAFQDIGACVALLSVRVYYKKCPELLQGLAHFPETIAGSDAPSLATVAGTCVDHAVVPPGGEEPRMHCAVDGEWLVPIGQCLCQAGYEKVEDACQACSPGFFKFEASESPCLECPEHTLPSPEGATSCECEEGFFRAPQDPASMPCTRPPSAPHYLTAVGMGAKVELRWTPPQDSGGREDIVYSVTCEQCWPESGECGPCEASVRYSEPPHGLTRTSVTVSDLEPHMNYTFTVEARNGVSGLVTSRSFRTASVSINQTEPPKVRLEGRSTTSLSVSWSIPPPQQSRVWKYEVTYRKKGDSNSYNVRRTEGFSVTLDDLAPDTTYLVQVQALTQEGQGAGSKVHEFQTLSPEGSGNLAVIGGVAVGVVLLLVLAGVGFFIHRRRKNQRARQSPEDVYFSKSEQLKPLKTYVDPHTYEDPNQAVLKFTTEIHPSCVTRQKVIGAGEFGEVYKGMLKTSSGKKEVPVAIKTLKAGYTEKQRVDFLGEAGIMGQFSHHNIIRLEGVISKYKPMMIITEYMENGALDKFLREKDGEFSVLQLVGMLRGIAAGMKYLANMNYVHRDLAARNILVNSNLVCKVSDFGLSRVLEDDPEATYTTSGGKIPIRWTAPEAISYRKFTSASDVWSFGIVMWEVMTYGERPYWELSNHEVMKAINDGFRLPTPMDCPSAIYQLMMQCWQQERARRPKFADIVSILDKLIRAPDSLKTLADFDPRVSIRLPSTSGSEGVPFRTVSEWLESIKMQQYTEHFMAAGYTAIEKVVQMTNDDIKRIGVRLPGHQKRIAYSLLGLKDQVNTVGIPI
UniProt P21860, whole entry: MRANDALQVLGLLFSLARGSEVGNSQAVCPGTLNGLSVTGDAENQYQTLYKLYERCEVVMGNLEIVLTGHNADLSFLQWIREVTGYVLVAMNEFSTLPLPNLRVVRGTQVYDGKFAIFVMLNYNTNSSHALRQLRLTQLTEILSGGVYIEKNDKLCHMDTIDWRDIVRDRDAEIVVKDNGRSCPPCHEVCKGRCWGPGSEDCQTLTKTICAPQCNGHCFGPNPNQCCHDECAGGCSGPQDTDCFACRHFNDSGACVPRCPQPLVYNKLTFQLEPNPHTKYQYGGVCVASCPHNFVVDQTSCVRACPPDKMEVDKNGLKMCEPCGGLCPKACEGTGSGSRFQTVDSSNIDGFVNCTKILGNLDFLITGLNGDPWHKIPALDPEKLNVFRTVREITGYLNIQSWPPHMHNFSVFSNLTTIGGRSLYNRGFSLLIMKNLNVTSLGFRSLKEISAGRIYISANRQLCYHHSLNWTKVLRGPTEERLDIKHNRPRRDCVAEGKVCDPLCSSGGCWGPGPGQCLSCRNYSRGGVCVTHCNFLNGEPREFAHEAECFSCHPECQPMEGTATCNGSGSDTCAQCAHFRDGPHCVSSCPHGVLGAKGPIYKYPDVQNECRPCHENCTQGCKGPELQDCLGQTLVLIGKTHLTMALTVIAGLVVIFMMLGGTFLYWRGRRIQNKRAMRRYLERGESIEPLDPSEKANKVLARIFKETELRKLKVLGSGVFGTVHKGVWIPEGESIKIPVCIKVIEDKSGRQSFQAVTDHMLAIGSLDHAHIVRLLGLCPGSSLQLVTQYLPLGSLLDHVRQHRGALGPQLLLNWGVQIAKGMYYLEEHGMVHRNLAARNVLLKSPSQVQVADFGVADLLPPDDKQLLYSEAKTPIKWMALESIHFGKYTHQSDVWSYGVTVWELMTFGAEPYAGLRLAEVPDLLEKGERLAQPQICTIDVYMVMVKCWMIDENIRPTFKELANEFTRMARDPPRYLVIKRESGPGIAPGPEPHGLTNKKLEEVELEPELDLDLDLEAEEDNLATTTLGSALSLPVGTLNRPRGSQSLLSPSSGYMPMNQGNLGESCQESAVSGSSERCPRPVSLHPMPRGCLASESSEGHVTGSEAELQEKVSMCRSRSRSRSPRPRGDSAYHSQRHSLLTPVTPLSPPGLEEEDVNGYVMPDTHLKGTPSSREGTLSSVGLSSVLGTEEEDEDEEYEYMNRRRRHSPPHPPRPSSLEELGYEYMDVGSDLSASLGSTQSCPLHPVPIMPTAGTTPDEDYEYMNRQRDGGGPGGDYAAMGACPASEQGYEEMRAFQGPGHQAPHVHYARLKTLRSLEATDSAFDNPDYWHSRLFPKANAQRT
UniProt Q15303, whole entry R711C: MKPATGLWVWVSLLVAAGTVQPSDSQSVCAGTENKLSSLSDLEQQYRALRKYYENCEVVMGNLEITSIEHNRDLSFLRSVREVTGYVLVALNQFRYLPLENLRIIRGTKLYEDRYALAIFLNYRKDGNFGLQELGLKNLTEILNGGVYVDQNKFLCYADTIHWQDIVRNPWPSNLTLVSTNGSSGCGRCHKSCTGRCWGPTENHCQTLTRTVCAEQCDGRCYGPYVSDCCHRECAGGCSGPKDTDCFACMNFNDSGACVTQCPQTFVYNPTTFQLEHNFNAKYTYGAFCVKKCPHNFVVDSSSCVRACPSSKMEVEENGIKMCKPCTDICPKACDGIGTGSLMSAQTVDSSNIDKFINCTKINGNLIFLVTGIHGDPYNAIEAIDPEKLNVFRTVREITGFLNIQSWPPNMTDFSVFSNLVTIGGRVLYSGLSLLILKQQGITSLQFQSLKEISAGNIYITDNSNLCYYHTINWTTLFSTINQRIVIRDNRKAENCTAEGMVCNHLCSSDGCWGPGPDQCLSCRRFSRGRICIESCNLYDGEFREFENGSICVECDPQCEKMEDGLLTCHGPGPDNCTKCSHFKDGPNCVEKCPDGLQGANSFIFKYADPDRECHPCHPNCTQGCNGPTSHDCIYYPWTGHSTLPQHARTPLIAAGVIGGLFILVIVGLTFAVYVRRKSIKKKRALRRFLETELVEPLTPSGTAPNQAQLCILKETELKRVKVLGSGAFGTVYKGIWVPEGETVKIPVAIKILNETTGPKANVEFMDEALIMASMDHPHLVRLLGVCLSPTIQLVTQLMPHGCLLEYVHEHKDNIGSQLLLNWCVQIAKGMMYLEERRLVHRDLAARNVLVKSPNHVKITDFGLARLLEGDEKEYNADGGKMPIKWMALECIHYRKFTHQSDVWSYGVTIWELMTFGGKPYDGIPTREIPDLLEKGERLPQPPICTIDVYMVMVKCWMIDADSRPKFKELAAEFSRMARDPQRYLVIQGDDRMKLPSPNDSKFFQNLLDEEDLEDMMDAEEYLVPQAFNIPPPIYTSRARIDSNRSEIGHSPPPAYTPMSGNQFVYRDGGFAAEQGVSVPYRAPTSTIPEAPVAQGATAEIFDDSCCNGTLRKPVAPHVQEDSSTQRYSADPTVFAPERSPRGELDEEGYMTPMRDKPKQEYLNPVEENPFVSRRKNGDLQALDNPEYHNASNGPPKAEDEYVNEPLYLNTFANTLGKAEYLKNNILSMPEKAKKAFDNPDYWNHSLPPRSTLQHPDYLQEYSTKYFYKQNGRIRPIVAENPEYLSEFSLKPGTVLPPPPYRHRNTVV
UniProt P06241, whole entry, looked up: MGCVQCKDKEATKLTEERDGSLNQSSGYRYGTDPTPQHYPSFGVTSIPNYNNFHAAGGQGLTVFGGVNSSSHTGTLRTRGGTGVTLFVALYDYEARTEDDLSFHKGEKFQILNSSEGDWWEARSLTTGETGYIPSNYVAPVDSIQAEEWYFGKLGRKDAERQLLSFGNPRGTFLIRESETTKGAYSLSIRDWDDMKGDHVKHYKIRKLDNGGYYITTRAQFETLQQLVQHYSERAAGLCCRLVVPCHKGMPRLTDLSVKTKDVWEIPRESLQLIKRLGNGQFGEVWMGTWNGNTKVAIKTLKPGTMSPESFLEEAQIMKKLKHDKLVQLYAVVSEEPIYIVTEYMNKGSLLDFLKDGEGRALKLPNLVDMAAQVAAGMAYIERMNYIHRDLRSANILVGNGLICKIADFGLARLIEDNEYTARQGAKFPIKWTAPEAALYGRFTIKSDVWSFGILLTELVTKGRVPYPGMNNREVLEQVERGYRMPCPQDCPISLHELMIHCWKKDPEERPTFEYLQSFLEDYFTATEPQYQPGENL
UniProt P49840: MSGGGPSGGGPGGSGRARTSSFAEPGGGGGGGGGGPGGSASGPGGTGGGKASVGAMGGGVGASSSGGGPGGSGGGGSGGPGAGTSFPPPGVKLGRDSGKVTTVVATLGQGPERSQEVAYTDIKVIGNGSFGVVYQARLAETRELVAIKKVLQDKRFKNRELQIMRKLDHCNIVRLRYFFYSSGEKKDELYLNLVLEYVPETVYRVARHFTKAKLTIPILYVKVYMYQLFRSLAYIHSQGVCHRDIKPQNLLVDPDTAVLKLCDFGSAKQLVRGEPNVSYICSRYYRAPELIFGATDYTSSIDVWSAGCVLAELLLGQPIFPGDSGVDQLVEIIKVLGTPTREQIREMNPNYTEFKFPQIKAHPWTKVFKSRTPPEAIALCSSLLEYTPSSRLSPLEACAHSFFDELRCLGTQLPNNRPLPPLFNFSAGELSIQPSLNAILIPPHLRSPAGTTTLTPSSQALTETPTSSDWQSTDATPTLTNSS
UniProt P14616: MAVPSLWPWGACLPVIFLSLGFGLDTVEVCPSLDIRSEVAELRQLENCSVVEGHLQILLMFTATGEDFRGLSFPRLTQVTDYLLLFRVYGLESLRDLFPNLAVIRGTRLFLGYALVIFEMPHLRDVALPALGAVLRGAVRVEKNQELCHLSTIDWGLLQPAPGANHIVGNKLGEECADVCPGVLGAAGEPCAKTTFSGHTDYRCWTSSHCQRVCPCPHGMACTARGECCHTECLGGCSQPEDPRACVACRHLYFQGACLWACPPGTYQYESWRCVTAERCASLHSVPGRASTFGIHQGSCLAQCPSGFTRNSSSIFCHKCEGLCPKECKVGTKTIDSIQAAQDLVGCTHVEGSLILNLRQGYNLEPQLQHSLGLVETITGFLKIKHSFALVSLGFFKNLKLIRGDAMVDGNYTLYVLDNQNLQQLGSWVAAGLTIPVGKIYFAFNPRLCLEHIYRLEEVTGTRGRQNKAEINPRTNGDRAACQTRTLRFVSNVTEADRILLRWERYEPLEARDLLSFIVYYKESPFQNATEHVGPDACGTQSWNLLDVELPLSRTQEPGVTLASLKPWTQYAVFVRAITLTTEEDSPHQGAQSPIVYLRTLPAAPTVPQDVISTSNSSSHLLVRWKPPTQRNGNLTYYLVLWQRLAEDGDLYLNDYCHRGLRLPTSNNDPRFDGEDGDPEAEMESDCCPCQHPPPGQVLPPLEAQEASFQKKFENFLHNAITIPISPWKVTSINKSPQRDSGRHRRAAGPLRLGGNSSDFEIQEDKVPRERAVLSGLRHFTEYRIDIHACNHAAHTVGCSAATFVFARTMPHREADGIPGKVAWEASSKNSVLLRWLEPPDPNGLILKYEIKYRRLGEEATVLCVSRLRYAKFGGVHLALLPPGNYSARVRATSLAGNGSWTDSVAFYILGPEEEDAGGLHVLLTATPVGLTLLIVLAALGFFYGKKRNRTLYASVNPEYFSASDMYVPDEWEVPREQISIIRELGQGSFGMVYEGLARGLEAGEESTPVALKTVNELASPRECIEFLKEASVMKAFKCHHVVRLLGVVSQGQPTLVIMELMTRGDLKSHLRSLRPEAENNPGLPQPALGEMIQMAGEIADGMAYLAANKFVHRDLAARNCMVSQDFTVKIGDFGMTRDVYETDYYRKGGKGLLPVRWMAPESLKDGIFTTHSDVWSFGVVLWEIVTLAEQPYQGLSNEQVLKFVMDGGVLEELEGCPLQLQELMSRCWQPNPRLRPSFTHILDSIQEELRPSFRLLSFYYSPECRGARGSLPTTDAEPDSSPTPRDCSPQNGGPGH

Tests used:
Assay in all cases: kinase-Nluc reporter destabilization hit call (1 = scored as downregulated) (binary); higher = compound decreases kinase abundance
Settings in all cases: K562; 2-18 h
EGFR = EGFR (UniProt P00533)
EGFR_G719S = EGFR_G719S (UniProt P00533)
EGFR_G719S_T790M = EGFR_G719S_T790M (UniProt P00533)
EGFR_L718V = EGFR_L718V (UniProt P00533)
EGFR_L858R = EGFR_L858R (UniProt P00533)
EGFR_L861Q = EGFR_L861Q (UniProt P00533)
EGFR_T790M = EGFR_T790M (UniProt P00533)
EPHA2 = EPHA2 (UniProt P29317)
ERBB3 = ERBB3 (UniProt P21860)
[1] = biological target: ERBB4_R711C (clone: ERBB4_mut) (UniProt Q15303)
ERN1 = ERN1 (UniProt O75460)
FGFR1 = FGFR1 (UniProt P11362)
FGFR2 = FGFR2 (UniProt P21802)
FGFR3 = FGFR3 (UniProt P22607)
FGR = FGR (UniProt P09769)
FLT3 = FLT3 (UniProt P36888)
FYN = FYN (UniProt P06241)
GSK3A = GSK3A (UniProt P49840)
HER2 = HER2 (UniProt P04626)
INSRR = INSRR (UniProt P14616)

SMILES | kinase-Nluc reporter destabilization hit call (EGFR) | kinase-Nluc reporter destabilization hit call (EGFR_G719S) | kinase-Nluc reporter destabilization hit call (EGFR_G719S_T790M) | kinase-Nluc reporter destabilization hit call (EGFR_L718V) | kinase-Nluc reporter destabilization hit call (EGFR_L858R) | kinase-Nluc reporter destabilization hit call (EGFR_L861Q) | kinase-Nluc reporter destabilization hit call (EGFR_T790M) | kinase-Nluc reporter destabilization hit call (EPHA2) | kinase-Nluc reporter destabilization hit call (ERBB3) | kinase-Nluc reporter destabilization hit call [1] | kinase-Nluc reporter destabilization hit call (ERN1) | kinase-Nluc reporter destabilization hit call (FGFR1) | kinase-Nluc reporter destabilization hit call (FGFR2) | kinase-Nluc reporter destabilization hit call (FGFR3) | kinase-Nluc reporter destabilization hit call (FGR) | kinase-Nluc reporter destabilization hit call (FLT3) | kinase-Nluc reporter destabilization hit call (FYN) | kinase-Nluc reporter destabilization hit call (GSK3A) | kinase-Nluc reporter destabilization hit call (HER2) | kinase-Nluc reporter destabilization hit call (INSRR)
COCCNc1cc(NC(=O)N2CCCc3cc(CN4CCN(C)CC4=O)c(C=O)nc32)ncc1C#N [Roblitinib] (10 µM) | inactive: 0 | inactive: 0 | inactive: 0 | inactive: 0 | inactive: 0 | inactive: 0 | inactive: 0 | inactive: 0 | inactive: 0 | inactive: 0 | inactive: 0 | inactive: 0 | inactive: 0 | inactive: 0 | inactive: 0 | inactive: 0 | inactive: 0 | inactive: 0 | inactive: 0 | inactive: 0
N[C@@H](CCC(=O)O)C(=O)N[C@@H](Cc1c[nH]c2ccccc12)C(=O)O [Oglufanide] (10 µM) | inactive: 0 | inactive: 0 | inactive: 0 | inactive: 0 | inactive: 0 | inactive: 0 | inactive: 0 | inactive: 0 | inactive: 0 | inactive: 0 | inactive: 0 | inactive: 0 | inactive: 0 | inactive: 0 | inactive: 0 | inactive: 0 | inactive: 0 | inactive: 0 | inactive: 0 | inactive: 0
O=C(Nc1cccc(C(F)(F)F)c1)c1cccc2cc(Oc3cc(CO)ncn3)ccc12 (10 µM) | inactive: 0 | inactive: 0 | inactive: 0 | inactive: 0 | inactive: 0 | inactive: 0 | inactive: 0 | inactive: 0 | inactive: 0 | inactive: 0 | inactive: 0 | inactive: 0 | inactive: 0 | inactive: 0 | inactive: 0 | inactive: 0 | inactive: 0 | inactive: 0 | inactive: 0 | inactive: 0
Cc1ncc(NC(=O)NC2c3ccccc3-c3ccccc32)c(-c2ccccc2)n1 (10 µM) | inactive: 0 | inactive: 0 | inactive: 0 | inactive: 0 | inactive: 0 | inactive: 0 | inactive: 0 | inactive: 0 | inactive: 0 | inactive: 0 | inactive: 0 | inactive: 0 | inactive: 0 | inactive: 0 | inactive: 0 | inactive: 0 | inactive: 0 | inactive: 0 | inactive: 0 | inactive: 0
Cc1ccc(NC(=O)c2ccnc(C(F)(F)F)c2)cc1-c1cc(OCCO)nc(N2CCOCC2)c1 (10 µM) | inactive: 0 | inactive: 0 | inactive: 0 | inactive: 0 | inactive: 0 | inactive: 0 | inactive: 0 | inactive: 0 | inactive: 0 | inactive: 0 | inactive: 0 | inactive: 0 | inactive: 0 | inactive: 0 | inactive: 0 | inactive: 0 | inactive: 0 | inactive: 0 | inactive: 0 | inactive: 0
c1ccc(-c2nc(=NCCN3CCOCC3)sn2-c2ccccc2)cc1 [VP3.15 (dihydrobromide)] (10 µM) | inactive: 0 | inactive: 0 | inactive: 0 | inactive: 0 | inactive: 0 | inactive: 0 | inactive: 0 | inactive: 0 | inactive: 0 | inactive: 0 | inactive: 0 | inactive: 0 | inactive: 0 | inactive: 0 | inactive: 0 | inactive: 0 | inactive: 0 | inactive: 0 | inactive: 0 | inactive: 0
CC(C)S(=O)(=O)c1ccc2nccc(Nc3ccc4scnc4c3)c2c1 (10 µM) | inactive: 0 | inactive: 0 | inactive: 0 | inactive: 0 | inactive: 0 | inactive: 0 | inactive: 0 | inactive: 0 | inactive: 0 | inactive: 0 | inactive: 0 | inactive: 0 | inactive: 0 | inactive: 0 | inactive: 0 | inactive: 0 | inactive: 0 | inactive: 0 | inactive: 0 | inactive: 0
Cn1ncc2cc(-c3cnc(N)c(Cl)c3N3CCC4(CCNC4=O)CC3)ccc21 (10 µM) | inactive: 0 | inactive: 0 | inactive: 0 | inactive: 0 | inactive: 0 | inactive: 0 | inactive: 0 | inactive: 0 | inactive: 0 | inactive: 0 | inactive: 0 | inactive: 0 | inactive: 0 | inactive: 0 | inactive: 0 | inactive: 0 | inactive: 0 | inactive: 0 | inactive: 0 | inactive: 0
C=CC(=O)Nc1cc(-n2c(=O)ccc3cnc4ccc(-c5ccc(NS(C)(=O)=O)cc5)cc4c32)ccc1C (10 µM) | inactive: 0 | inactive: 0 | inactive: 0 | inactive: 0 | inactive: 0 | inactive: 0 | inactive: 0 | inactive: 0 | inactive: 0 | inactive: 0 | inactive: 0 | inactive: 0 | inactive: 0 | inactive: 0 | inactive: 0 | inactive: 0 | inactive: 0 | inactive: 0 | inactive: 0 | inactive: 0
CCN(CC)c1ccc2cc(-c3nc4cc(C)ccc4o3)c(=O)oc2c1 (10 µM) | inactive: 0 | inactive: 0 | inactive: 0 | inactive: 0 | inactive: 0 | inactive: 0 | inactive: 0 | inactive: 0 | inactive: 0 | inactive: 0 | inactive: 0 | inactive: 0 | inactive: 0 | inactive: 0 | inactive: 0 | inactive: 0 | inactive: 0 | inactive: 0 | inactive: 0 | inactive: 0
Nc1n[nH]c2nc(-c3ccc(NS(=O)(=O)c4cc(Cl)ccc4F)cc3)cnc12 (10 µM) | inactive: 0 | inactive: 0 | inactive: 0 | inactive: 0 | inactive: 0 | inactive: 0 | active: 1 | inactive: 0 | inactive: 0 | inactive: 0 | inactive: 0 | inactive: 0 | inactive: 0 | inactive: 0 | inactive: 0 | inactive: 0 | inactive: 0 | inactive: 0 | inactive: 0 | inactive: 0
C=CC(=O)N1C(=O)CC(c2ccc(F)cc2)Sc2ccccc21 (stereo not drawn) [GSK-3β inhibitor 3] (10 µM) | inactive: 0 | inactive: 0 | inactive: 0 | inactive: 0 | inactive: 0 | inactive: 0 | inactive: 0 | inactive: 0 | inactive: 0 | inactive: 0 | inactive: 0 | inactive: 0 | inactive: 0 | inactive: 0 | inactive: 0 | inactive: 0 | inactive: 0 | inactive: 0 | inactive: 0 | inactive: 0
CC(C)c1cc(/C=C(\C#N)C(=O)NCCCc2ccccc2)cc(C(C)C)c1O (10 µM) | inactive: 0 | inactive: 0 | inactive: 0 | inactive: 0 | inactive: 0 | inactive: 0 | inactive: 0 | inactive: 0 | inactive: 0 | inactive: 0 | inactive: 0 | inactive: 0 | inactive: 0 | inactive: 0 | inactive: 0 | inactive: 0 | inactive: 0 | inactive: 0 | inactive: 0 | inactive: 0
COc1cc(N2CCOCC2)ccc1Nc1ncc(Cl)c(Nc2ccccc2NS(C)(=O)=O)n1 (2.5 µM) | inactive: 0 | inactive: 0 | inactive: 0 | inactive: 0 | inactive: 0 | inactive: 0 | inactive: 0 | inactive: 0 | inactive: 0 | inactive: 0 | inactive: 0 | inactive: 0 | inactive: 0 | inactive: 0 | inactive: 0 | inactive: 0 | inactive: 0 | inactive: 0 | inactive: 0 | inactive: 0
Cc1ccn2c(C(=O)C(=O)c3ccccc3)c(-c3ccccc3)nc2c1 (10 µM) | inactive: 0 | inactive: 0 | inactive: 0 | inactive: 0 | inactive: 0 | inactive: 0 | inactive: 0 | inactive: 0 | inactive: 0 | inactive: 0 | inactive: 0 | inactive: 0 | inactive: 0 | inactive: 0 | inactive: 0 | inactive: 0 | inactive: 0 | inactive: 0 | inactive: 0 | inactive: 0
CNC(=O)c1cc2c(Oc3ccc(NC(=S)NC(=O)Cc4ccccc4)cc3F)ccnc2cc1OC [TAS-115 mesylate] (10 µM) | inactive: 0 | inactive: 0 | inactive: 0 | inactive: 0 | inactive: 0 | inactive: 0 | inactive: 0 | inactive: 0 | inactive: 0 | inactive: 0 | inactive: 0 | inactive: 0 | inactive: 0 | inactive: 0 | inactive: 0 | inactive: 0 | inactive: 0 | inactive: 0 | inactive: 0 | inactive: 0
NC1=NCCN1CC(=O)O [Cyclocreatine] (10 µM) | inactive: 0 | inactive: 0 | inactive: 0 | inactive: 0 | inactive: 0 | inactive: 0 | inactive: 0 | inactive: 0 | inactive: 0 | inactive: 0 | inactive: 0 | inactive: 0 | inactive: 0 | inactive: 0 | inactive: 0 | inactive: 0 | inactive: 0 | inactive: 0 | inactive: 0 | inactive: 0

Record cards (already shown). Values in the order: kinase-Nluc reporter destabilization hit call (EGFR) | kinase-Nluc reporter destabilization hit call (EGFR_G719S) | kinase-Nluc reporter destabilization hit call (EGFR_G719S_T790M) | kinase-Nluc reporter destabilization hit call (EGFR_L718V) | kinase-Nluc reporter destabilization hit call (EGFR_L858R) | kinase-Nluc reporter destabilization hit call (EGFR_L861Q) | kinase-Nluc reporter destabilization hit call (EGFR_T790M) | kinase-Nluc reporter destabilization hit call (EPHA2) | kinase-Nluc reporter destabilization hit call (ERBB3) | kinase-Nluc reporter destabilization hit call [1] | kinase-Nluc reporter destabilization hit call (ERN1) | kinase-Nluc reporter destabilization hit call (FGFR1) | kinase-Nluc reporter destabilization hit call (FGFR2) | kinase-Nluc reporter destabilization hit call (FGFR3) | kinase-Nluc reporter destabilization hit call (FGR) | kinase-Nluc reporter destabilization hit call (FLT3) | kinase-Nluc reporter destabilization hit call (FYN) | kinase-Nluc reporter destabilization hit call (GSK3A) | kinase-Nluc reporter destabilization hit call (HER2) | kinase-Nluc reporter destabilization hit call (INSRR)
c1ccc(-c2nc(=NCCN3CCOCC3)sn2-c2ccccc2)cc1 [VP3.15 (dihydrobromide)] (10 µM) in the list: inactive: 0 | inactive: 0 | inactive: 0 | inactive: 0 | inactive: 0 | inactive: 0 | inactive: 0 | inactive: 0 | inactive: 0 | inactive: 0 | inactive: 0 | inactive: 0 | inactive: 0 | inactive: 0 | inactive: 0 | inactive: 0 | inactive: 0 | inactive: 0 | inactive: 0 | inactive: 0
CC(C)c1cc(/C=C(\C#N)C(=O)NCCCc2ccccc2)cc(C(C)C)c1O (10 µM) in the list: inactive: 0 | inactive: 0 | inactive: 0 | inactive: 0 | inactive: 0 | inactive: 0 | inactive: 0 | inactive: 0 | inactive: 0 | inactive: 0 | inactive: 0 | inactive: 0 | inactive: 0 | inactive: 0 | inactive: 0 | inactive: 0 | inactive: 0 | inactive: 0 | inactive: 0 | inactive: 0
